Several values for one entry are separate records, joined by “and”; a condition that tells them apart may be missing. Identical values can stand only once. About 9,100 (2.5%) of roughly 360,000 compounds were called active. The shares of active, inactive and inconclusive entries below differ from those in the screen. Cut-off read from the data, not from the text of the source: active = max response below about -50%; inconclusive = no clear call, values can overlap the other calls; inactive = above that. Some compounds were tested as several samples or in several runs, with calls that do not always agree.
Target: D(3) dopamine receptor (Homo sapiens) (UniProt P35462)
Assay: qHTS of D3 Dopamine Receptor Antagonist: qHTS
Details: D3R cells, DiscoveRx beta-arrestin luminescence, antagonist mode; active compounds read low
Summary of the method: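 Cells plated overnight at 1500 cells/well, then exposed to library compounds with dopamine controls for 90 minutes at 37 degrees C. DiscoveRx reagent added for 30–60 minutes at room temperature; luminescence read, quantitative HTS format.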
% is set by controls: 0 for no effect and ±100 for the full control effect.

Amino acid sequences for entries named in this document (tags omitted).
UniProt P35462, whole entry, looked up: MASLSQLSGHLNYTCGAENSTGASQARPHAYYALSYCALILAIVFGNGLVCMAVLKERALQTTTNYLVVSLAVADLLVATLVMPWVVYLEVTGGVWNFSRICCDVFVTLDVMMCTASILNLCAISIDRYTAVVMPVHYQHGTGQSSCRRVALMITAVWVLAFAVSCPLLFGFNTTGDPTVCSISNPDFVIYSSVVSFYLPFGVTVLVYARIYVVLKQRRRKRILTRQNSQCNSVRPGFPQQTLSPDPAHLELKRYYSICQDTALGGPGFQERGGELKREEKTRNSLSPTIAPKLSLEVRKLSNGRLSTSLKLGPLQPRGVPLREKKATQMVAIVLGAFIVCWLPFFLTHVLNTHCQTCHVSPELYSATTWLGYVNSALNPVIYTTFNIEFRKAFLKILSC

Max response, negative = inhibition, active:
COCCN1C(=O)c2ccccc2C(C(=O)N2CCN(c3ccccn3)CC2)C1c1ccc(F)cc1 (configuration not stated) -51.3%
COC(=O)c1[nH]c2ccccc2c1NC(=O)Oc1ccccc1 -52.3%
COc1ccc(CCn2c(N)cc(=O)[nH]c2=O)cc1OC -86.4%
CC(C(O)c1ccc(O)cc1)N1CCC(Cc2ccccc2)CC1 (configuration not stated) -109% and -88.4%
CCN1CCN(Cc2c(C)[nH]c3ccc(OC)cc3c2=O)CC1 -53.1%

Max response, negative = inhibition, inactive:
CCn1c(SCc2c(Cl)cccc2Cl)nc2nc3c(cc2c1=O)CCCC3 -29.4%
O=C(Nc1nnc([C@@H]2C[C@H](O)[C@@H](CO)O2)s1)Nc1cccc(Cl)c1Cl -20%
CCCCC(=O)NC(c1ccccc1Cl)c1ccc2cccnc2c1O (configuration not stated) 1.46%
CCS(=O)(=O)N1Cc2ccccc2CC1C(=O)Nc1nc2c(C)cccc2s1 (configuration not stated) -7.3%
O=C(CCCN1C(=O)/C(=C\c2cccs2)SC1=S)Nc1ccc(O)cc1 -1.18%
O=C(NCc1ccc(Cl)cc1)c1ccncc1 18.1%
COC1CC(N)C2OC(c3ccccc3)OCC2O1 (configuration not stated) 7.01%
COc1cccc(N2CCN(C(=O)C3CCCN(c4ncnc5c4nc4n5CCCCC4)C3)CC2)c1 (configuration not stated) 46.1%
O=C(O)CCSc1ncnc2sc(-c3ccccc3)cc12 1.31%

Max response, negative = inhibition, inconclusive:
CCCN1CCc2c(sc(NC(=O)c3ccc(S(=O)(=O)N4CCN(C(=O)OCC)CC4)cc3)c2C(N)=O)C1 -36.4%
CCN1CCN(c2c(Cl)cccc2NC(=O)c2ccco2)CC1 -39.2%
CC1(C)CC(NS(=O)(=O)c2ccc3ccccc3c2)CC(C)(C)N1 -36.4%
CCOC(=O)C1(C)CCN1C(=O)c1ccc(OC)cc1 (configuration not stated) -35.9%
CCN(C(=O)c1cc(S(=O)(=O)N2CCOCC2)cn1C)c1cccc(C)c1 -30%
C[C@@H]1CC[C@]2(C(=O)O[C@@H]3O[C@H](CO)[C@@H](O)[C@H](O)[C@H]3O)CC[C@]3(C)C(=CCC4[C@@]5(C)CC[C@H](O[C@@H]6OC[C@H](O)[C@H](O[C@@H]7O[C@H](CO)[C@@H](O)[C@H](O)[C@H]7O)[C@H]6O)C(C)(C)C5CC[C@]43C)C2[C@]1(C)O (some centres not stated) -30.3%
CN(C)S(=O)(=O)c1cccc(COC(=O)C2=COCCO2)c1 -32.5%
COc1ccc(-c2ccc([C@H]3[C@H]4C=CC[C@@H](C)[C@@H]4C(=O)N3Cc3ccccc3)c(F)c2)cc1 -38.3%
COc1ccc(CN(C)CCc2ccccn2)c(OC)c1OC -42%
O=S(=O)(Nc1cc(C(F)(F)F)ccc1N1CCOCC1)c1ccc2ccccc2c1 -35.5%
CCOc1ccc(C(=O)NCCN(C)C)cc1 -49%
Cc1ccc(C(=O)NCC(c2ccco2)N2CCc3ccccc3C2)cc1 (configuration not stated) -38.6%
Oc1cccc2ccc(/C=C/c3ccc(Br)s3)nc12 -35.4%
Cc1csc2nc(CSc3nc4ccccc4o3)cn12 -33.7%
CNC(=O)c1snnc1-c1ccccc1 -30.2%
CCN1CCc2c(sc(NC(=O)c3ccc(S(=O)(=O)N(C)CC4CCCO4)cc3)c2C(N)=O)C1 (configuration not stated) -42.6%
CC1(C)Oc2ccc(C(=O)NC3CCCC3)cc2N(CC(=O)NC2CCCCC2)C1=O -36%
COC(=O)c1cc2c([nH]c1=O)CCCC2=O -35.9%
CC(C)C[C@H]1CNC(=S)N1CC1CCCN1C[C@H](CC(C)C)N1C[C@H](CC(C)C)N(CCc2ccccc2)C1=S (some centres not stated) -36.1%
CN(CCCNS(=O)(=O)c1cccc2cccnc12)Cc1ccccc1 -30.7%
O=C(O)Cn1nnc(-c2ccccc2)c1COc1ccccc1 -32.5%
O=S(=O)(c1cccc2cccnc12)N(CCO)CCO -48.2%
COC(=O)[C@@]12CCCN1[C@H](c1ccc(-c3ccccc3)cc1)[C@@H]1C(=O)N(C)C(=O)[C@@H]12 -30.4%
OC(COc1ccc2ccccc2c1)CN1CCCC1 (configuration not stated) -38.3%
COc1ccc(/C=N/n2c(-c3cc(C)[nH]n3)n[nH]c2=S)cc1 -39.2%
CCCn1c2c(c(O)c(C(=O)NCCCN(CC)CC)c1=O)CCCC2 -32.3%
Cc1oc(-c2cccc(Cl)c2)nc1CN1CCC(C(=O)NCc2cccnc2)CC1 -34.4%
CCC(C)(C)NC(=O)C(c1ccc(F)cc1)N(Cc1ccco1)C(=O)c1cnccn1 (configuration not stated) -31.6%
